The text below walks through data of the supplement of paper PMC10849652.

The chains behind the UniProt entries cited, without tags or fusion partners. Where a name states a change or a piece, a line headed by the entry shows the natural chain unless it says otherwise.
UniProt Q9BVM4: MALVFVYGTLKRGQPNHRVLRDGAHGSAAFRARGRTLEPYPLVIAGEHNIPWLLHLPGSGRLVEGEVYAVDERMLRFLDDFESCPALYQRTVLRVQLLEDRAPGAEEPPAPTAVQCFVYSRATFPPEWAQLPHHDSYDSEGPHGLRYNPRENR
UniProt Q06547, whole entry, looked up: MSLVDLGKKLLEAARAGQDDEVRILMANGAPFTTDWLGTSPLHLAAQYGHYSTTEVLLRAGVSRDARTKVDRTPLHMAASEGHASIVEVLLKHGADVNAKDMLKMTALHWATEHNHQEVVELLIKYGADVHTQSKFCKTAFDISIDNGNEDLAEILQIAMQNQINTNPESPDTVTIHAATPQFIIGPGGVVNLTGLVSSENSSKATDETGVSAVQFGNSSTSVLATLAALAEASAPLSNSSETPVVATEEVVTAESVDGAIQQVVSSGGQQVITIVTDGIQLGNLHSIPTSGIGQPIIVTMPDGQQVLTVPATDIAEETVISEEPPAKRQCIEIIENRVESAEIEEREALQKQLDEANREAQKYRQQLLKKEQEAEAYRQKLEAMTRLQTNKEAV
UniProt Q14393: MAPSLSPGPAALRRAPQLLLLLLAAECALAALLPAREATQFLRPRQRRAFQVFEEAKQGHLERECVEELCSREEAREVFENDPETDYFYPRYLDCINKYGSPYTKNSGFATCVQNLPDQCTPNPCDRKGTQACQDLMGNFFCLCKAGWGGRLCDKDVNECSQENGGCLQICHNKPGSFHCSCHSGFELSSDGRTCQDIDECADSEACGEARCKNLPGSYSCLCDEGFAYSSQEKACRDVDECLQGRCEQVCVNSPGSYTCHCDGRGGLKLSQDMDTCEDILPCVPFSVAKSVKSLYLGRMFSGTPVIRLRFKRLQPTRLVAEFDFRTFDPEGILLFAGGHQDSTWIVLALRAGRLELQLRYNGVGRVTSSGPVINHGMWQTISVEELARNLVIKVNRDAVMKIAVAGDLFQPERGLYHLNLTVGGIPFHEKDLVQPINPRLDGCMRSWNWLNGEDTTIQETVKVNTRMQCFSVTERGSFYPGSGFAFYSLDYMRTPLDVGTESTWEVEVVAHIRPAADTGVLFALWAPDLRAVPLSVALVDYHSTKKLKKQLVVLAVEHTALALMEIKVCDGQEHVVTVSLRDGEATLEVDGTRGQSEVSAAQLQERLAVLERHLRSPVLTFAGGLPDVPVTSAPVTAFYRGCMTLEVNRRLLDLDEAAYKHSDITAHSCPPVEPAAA
UniProt O94915: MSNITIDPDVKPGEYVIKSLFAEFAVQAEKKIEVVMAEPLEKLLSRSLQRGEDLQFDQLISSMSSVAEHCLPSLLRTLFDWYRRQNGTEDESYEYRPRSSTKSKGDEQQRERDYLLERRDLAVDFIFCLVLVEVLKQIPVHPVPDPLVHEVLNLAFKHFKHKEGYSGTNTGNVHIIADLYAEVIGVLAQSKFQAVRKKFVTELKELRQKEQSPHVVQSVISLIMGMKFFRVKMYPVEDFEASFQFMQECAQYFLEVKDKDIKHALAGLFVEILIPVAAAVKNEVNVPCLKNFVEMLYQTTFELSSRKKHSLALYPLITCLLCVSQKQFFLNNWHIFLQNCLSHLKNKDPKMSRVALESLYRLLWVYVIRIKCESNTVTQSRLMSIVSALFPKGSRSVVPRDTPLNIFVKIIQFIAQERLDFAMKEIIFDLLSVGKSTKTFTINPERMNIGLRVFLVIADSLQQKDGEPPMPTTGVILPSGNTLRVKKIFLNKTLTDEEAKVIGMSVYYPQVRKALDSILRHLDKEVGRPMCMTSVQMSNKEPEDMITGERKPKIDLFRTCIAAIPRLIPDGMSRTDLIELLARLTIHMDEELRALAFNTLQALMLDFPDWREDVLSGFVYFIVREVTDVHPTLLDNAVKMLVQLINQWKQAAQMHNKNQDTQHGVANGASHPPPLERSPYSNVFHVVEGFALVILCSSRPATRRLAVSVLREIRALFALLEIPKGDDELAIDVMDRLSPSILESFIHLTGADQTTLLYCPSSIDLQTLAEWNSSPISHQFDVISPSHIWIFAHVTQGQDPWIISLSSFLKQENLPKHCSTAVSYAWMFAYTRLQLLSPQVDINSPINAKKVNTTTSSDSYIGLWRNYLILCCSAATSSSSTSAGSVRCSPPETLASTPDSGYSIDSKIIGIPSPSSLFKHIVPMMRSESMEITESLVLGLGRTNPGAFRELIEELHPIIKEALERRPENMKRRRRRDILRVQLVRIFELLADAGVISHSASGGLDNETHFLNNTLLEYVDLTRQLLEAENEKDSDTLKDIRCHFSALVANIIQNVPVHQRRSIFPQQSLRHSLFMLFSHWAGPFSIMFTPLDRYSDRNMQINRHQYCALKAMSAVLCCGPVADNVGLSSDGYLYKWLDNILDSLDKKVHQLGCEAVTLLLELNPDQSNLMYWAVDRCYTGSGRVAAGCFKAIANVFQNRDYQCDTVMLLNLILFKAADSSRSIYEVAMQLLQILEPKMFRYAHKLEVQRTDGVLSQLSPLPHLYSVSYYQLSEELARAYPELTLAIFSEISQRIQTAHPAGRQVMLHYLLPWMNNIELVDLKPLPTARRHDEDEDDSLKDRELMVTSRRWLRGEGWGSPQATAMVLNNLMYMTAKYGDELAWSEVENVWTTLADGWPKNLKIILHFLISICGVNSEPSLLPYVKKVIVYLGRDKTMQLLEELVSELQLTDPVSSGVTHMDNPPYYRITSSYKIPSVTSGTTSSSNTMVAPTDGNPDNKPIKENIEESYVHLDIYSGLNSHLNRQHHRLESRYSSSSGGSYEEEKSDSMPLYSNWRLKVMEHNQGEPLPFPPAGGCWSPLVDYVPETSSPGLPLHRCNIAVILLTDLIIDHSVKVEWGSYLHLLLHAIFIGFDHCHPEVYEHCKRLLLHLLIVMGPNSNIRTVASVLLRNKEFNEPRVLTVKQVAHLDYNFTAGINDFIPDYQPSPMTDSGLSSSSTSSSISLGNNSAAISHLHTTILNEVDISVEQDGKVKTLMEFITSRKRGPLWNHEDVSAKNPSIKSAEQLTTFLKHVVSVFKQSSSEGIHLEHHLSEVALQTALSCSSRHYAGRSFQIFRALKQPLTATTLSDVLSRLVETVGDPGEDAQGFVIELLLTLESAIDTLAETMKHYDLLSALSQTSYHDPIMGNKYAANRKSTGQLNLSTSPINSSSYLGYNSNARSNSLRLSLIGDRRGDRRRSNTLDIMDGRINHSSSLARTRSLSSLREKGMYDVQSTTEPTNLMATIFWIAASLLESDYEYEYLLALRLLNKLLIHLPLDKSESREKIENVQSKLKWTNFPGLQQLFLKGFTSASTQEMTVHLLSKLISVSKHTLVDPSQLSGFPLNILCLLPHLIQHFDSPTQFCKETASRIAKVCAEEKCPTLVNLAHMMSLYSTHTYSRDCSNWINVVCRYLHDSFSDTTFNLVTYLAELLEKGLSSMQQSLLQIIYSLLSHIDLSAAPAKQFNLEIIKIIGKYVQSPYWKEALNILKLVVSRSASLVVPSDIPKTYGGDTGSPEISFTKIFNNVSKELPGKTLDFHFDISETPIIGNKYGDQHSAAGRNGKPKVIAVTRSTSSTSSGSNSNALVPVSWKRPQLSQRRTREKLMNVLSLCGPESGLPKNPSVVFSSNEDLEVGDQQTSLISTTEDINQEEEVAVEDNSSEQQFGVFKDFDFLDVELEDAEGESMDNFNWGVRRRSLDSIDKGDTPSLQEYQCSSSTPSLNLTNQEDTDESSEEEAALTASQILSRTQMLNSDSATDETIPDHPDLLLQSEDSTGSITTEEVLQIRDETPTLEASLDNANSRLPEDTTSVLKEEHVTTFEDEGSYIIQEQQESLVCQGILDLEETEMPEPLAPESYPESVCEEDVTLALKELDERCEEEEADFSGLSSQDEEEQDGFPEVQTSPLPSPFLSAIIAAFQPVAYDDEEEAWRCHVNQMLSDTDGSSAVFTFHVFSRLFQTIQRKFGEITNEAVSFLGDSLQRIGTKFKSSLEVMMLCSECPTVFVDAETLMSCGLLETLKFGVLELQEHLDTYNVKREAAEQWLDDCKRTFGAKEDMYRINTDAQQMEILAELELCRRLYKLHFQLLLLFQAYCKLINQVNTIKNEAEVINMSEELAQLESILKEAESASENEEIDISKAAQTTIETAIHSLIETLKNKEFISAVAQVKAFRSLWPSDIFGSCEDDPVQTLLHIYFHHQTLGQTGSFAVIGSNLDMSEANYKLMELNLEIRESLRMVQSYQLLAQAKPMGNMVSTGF
UniProt P04406: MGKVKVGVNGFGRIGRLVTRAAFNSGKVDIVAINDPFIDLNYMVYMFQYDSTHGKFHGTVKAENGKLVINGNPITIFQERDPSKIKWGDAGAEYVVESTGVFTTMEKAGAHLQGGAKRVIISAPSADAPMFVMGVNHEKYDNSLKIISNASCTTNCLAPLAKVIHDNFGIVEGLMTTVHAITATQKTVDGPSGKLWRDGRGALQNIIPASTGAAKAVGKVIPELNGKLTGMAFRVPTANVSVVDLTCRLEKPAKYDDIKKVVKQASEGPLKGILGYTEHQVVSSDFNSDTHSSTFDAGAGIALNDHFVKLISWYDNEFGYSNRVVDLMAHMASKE
UniProt Q969S9: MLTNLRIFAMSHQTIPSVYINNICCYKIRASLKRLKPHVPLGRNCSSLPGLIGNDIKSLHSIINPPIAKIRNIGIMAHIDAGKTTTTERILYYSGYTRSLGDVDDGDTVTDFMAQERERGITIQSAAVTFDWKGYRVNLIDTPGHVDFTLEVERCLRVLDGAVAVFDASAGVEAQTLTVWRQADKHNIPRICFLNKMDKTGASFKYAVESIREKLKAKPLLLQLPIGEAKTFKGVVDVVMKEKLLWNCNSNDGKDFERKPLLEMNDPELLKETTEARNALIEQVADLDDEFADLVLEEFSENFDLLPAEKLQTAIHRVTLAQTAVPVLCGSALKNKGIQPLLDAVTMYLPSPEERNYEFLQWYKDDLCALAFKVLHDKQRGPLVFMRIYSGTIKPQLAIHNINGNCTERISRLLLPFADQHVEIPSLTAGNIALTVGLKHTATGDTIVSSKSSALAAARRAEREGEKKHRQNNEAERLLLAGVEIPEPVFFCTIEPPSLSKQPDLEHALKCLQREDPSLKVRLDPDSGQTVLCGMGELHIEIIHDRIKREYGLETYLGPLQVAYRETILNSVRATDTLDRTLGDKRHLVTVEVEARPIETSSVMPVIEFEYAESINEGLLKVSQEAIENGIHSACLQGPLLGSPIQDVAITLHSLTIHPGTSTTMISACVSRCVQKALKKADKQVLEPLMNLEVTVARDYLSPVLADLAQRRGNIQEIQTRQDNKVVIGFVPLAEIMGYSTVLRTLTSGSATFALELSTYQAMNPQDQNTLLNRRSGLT
UniProt O14893: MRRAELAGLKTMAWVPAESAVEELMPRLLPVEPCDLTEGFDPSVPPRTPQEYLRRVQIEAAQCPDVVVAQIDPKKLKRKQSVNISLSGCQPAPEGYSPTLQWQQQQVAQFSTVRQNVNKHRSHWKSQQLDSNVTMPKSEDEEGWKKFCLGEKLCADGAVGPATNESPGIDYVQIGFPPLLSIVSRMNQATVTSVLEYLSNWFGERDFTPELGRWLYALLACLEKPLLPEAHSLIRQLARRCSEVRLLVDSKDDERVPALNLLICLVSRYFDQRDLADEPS
UniProt P22466: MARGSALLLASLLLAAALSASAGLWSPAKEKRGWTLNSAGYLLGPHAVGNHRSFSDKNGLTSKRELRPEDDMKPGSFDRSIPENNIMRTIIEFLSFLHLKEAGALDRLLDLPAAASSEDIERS
UniProt Q9BUM1: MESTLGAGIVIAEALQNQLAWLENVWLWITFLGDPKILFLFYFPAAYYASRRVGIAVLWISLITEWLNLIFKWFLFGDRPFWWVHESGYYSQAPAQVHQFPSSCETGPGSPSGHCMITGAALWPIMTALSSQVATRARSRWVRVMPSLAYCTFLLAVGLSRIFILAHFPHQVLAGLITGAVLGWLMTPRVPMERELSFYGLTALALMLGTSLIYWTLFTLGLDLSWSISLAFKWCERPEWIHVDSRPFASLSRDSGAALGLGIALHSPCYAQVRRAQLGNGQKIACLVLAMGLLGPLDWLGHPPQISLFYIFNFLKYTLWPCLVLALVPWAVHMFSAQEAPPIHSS

Experiment in all cases: log2 fold change, soluble protein after heating vs DMSO (PISA); higher = thermal stabilisation; K562 cells, 10 uM, 30 min; active = over 0.2 and 3.5 SD of the protein, either way, in both replicates (recomputed)
Compound in assay [1]: C1=CC=C(C=C1)C2=NC(=C(N2)C3=CC=NC=C3)C4=CC(=C(C=C4)Cl)O
A digest of the protocol: (§1)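 For each measurement, 10 μM compound was applied for 30 min to K562 cells at 2×10^6 cells/mL. Aliquots were heated for 3 min across 48°C-58°C, pooled, and extracted in PBS with 0.5% NP-40 at 4°C; the supernatant after 21,000xg for 90 min was soluble protein. This was quantified by TMTpro 16plex LC-MS/MS with channel sums equalised, and thermal stability was reported relative to control samples from duplicates, on a log2 fold-change scale.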

Compound in assay [2]: CC(C)(C)Cn1c(N)nc2ccc(-c3[nH]c(C(C)(C)C)nc3-c3ccc(F)cc3)nc21 [ralimetinib]
A digest of the protocol:
as §1

Compound in assay [3]: CC(C)C[C@@H](C=O)NC(=O)[C@H](CC(C)C)NC(=O)[C@H](CC(C)C)NC(=O)OCc1ccccc1
The method in brief:
as §1

Compound in assay [4]: C#Cc1cccc(Nc2ncnc3cc(OCCOC)c(OCCOC)cc23)c1 [erlotinib]
A digest of the protocol: as §1

Compound in assay [5]: C1=CC(=CC=C1C2=NC3=C(N2)C=C(C=C3)C(=O)N)OC4=CC=C(C=C4)Cl
A digest of the protocol:
as §1

Compound in assay [6]: C1=CC2=NC=CN=C2C=C1/C=C/3\C(=O)NC(=O)S3
A digest of the protocol: as §1

Compound in assay [7]: C1CCN(C1)C(=O)NC2=CC=CC(=C2)NC3=NC=C(C(=N3)NCCC4=CN=CN4)Br
A digest of the protocol: as §1

Compound in assay [8]: C1CN(CCC1(CC2=CC=C(C=C2)Cl)N)C3=NC=NC4=C3C=CN4
A digest of the protocol: as §1

Compound in assay [9]: C1COCCN1CCN2C3=CC=CC=C3N=C2NC(=O)C4=CC(=CC=C4)[N+](=O)[O-] [IRAK-1-4 Inhibitor I]
The method in brief: as §1

Compound in assay [10]: C=CC(=O)N1CCC[C@@H](n2nc(-c3ccc(Oc4ccccc4)cc3)c3c(N)ncnc32)C1 [ibrutinib]
The method in brief: as §1

Compound in assay [11]: CC(C)C1=C2N=C(C=C(N2N=C1)NCC3=CC=CC=C3)NCCCCCCN
The method in brief: as §1

Compound in assay [12]: CC(C)N(C[C@H]1O[C@@H](n2cnc3c(N)ncnc32)[C@H](O)[C@@H]1O)[C@H]1C[C@@H](CCc2nc3cc(C(C)(C)C)ccc3[nH]2)C1 [pinometostat]
A digest of the protocol:
as §1

Compound in assay [13]: CC1=C(C2=C(C=C1)C(=O)C3=CC=CC=C3N2CCCN)C
A digest of the protocol: as §1

Compound in assay [14]: C1=CC(=C(C=C1Cl)C2=NC3=NC=CN=C3C(=N2)NC4=CC=NC=C4)F
The method in brief: as §1

Compound in assay [15]: CC(C)(O)CC(=O)NCCn1ccc2ncnc(Nc3ccc(Oc4cccc(C(F)(F)F)c4)c(Cl)c3)c21
The method in brief: as §1

Compound in assay [16]: C/C(=N\NC(=O)C1=CC(=CC=C1)S(=O)(=O)N2CCOCC2)/C3=C(C=CC(=C3)Cl)O
A digest of the protocol: as §1

Compound in assay [17]: C1=CC2=C(C=CC(=C2)/C=C\3/C(=O)NC(=NCC4=CC=CS4)S3)N=C1
The method in brief: as §1

Compound in assay [18]: C1=CC=C2C(=C1)C3=NNC4=CC=CC(=C43)C2=O
A digest of the protocol: as §1

Compound in assay [19]: CC(=O)c1cnc2ccc(-c3cc(Cl)c(O)c(Cl)c3)nc2c1N[C@H]1CC[C@H](CN(C)C)CC1
The method in brief: as §1

Compound in assay [20]: CC1=C(C(CC(=O)N1)C2=CC=C(C=C2)C(F)(F)F)C(=O)NC3=C(C=C4C(=C3)C=NN4)F
The method in brief: as §1

This is one part of the list. Residues, ends and D or L forms follow the SMILES beside them. *: point of attachment. Cbz = O=C(OCc1ccccc1)*

Turning to GGACT (UniProt Q9BVM4), the log2 fold change in assay [1] is inactive: 0.059; in assay [2], inactive: 0.028; in assay [3], inactive: -0.068.
Regarding GABPB1 (UniProt Q06547), the log2 fold change in assay [4] was inactive: 0.043; in assay [5], inactive: 0.023; in assay [6], inactive: -0.025; in [1], inactive: 0.121; in [7] it was inactive: -0.047; in assay [8] it was inactive: -0.001. The log2 fold change in [9] is inactive: 0.041; in [10], inactive: 0.027; in assay [2] it was inactive: -0.283; in assay [11], inactive: -0.219; in assay [3] it was inactive: 0.193; in [12], inactive: 0.017. In [13], the log2 fold change was inactive: -0.318.
As to GAS6 isoform 1 (UniProt Q14393), the log2 fold change in assay [4] is inactive: -0.031; in [14] it was inactive: -0.112; in assay [5] it was inactive: -0.048; in [15], inactive: 0.05; in [11], inactive: -0.067.
As to FRYL isoform 2 (UniProt O94915), the log2 fold change is inactive: 0.02 in assay [16]; inactive: 0.064 in assay [14]; inactive: 0.084 in [17]; inactive: 0.032 in [1]; inactive: -0.121 in assay [18]; inactive: -0.032 in [19]. Besides, the log2 fold change in assay [2] was inactive: 0.075; in assay [15], inactive: -0.069; in [3], inactive: -0.087.
For the target GAPDH isoform 2 (UniProt P04406), the results for the log2 fold change in [4], in [5] and in [11] were inactive: 0.045, inactive: 0.054 and inactive: -0.036, respectively.
For GCFC2 isoform 3 (UniProt P16383), the log2 fold change in assay [4] was inactive: -0.077; in assay [5], inactive: -0.094; in assay [7], inactive: -0.332; in [8] it was inactive: 0.105; in assay [11], inactive: -0.032; in assay [13], inactive: -0.234.
Take GFM2 (UniProt Q969S9): the results for the log2 fold change in assay [6] and in assay [10] were inactive: 0.096 and inactive: -0.074, respectively.
With FUT4 (UniProt P22083), the log2 fold change is inactive: 0.039 in assay [7]; inactive: 0.131 in assay [8]; inactive: -0.246 in [9]; inactive: 0 in assay [12]; inactive: -0.324 in assay [13].
As for GALNT10 (UniProt Q86SR1), the log2 fold change in [16] is inactive: -0.05; in assay [14], inactive: -0.055; in assay [17] it was inactive: 0.056; in [6], inactive: 0.037; in assay [18] it was inactive: 0.09; in assay [9], inactive: -0.003. For the same target, the log2 fold change was inactive: 0.004 in [10]; inactive: -0.005 in assay [19]; inactive: -0.011 in assay [15]; inactive: -0.001 in assay [12]; inactive: 0.009 in assay [20].
GEMIN2 (UniProt O14893): the log2 fold change in [16] was inactive: -0.086; in assay [14] it was active: -0.428; in [17], inactive: 0.057; in assay [6], inactive: -0.013; in assay [1], inactive: -0.069; in assay [18], inactive: -0.042. The log2 fold change is inactive: -0.046 in assay [9]; inactive: 0.055 in [10]; inactive: -0.061 in assay [19]; inactive: 0.049 in assay [2]; inactive: -0.307 in assay [15]; inactive: 0.012 in assay [3]. In addition, the log2 fold change in assay [12] is inactive: -0.096.
Take GABPB1 isoform 3 (UniProt Q06547): the log2 fold change was inactive: 0.002 in assay [6]; inactive: -0.113 in [7]; inactive: -0.048 in assay [8]; inactive: -0.031 in [10]; inactive: -0.257 in [13].
As for GAL (UniProt P22466), the log2 fold change in assay [4] was inactive: -0.203; in assay [5], inactive: -0.157; in assay [6], inactive: -0.043; in assay [1] it was inactive: 0.015; in [9], inactive: 0.05; in [10], inactive: 0.14. Besides, the log2 fold change in assay [2] was inactive: 0; in assay [11], inactive: 0.16; in assay [3], inactive: 0.108; in [12], inactive: 0.037.
For the target G6PC3 (UniProt Q9BUM1), the log2 fold change in [4] was inactive: 0.006; in assay [5], inactive: -0.004; in assay [11], inactive: -0.056; in assay [20], inactive: 0.013.
